Measurements reported in publication PMC4302594.
Results are given in words; binding and its absence hold for the method and conditions named. In cells and extracts the contact can be indirect. A result given as binding can be weak or reduced; the word gives no strength.

Molecular target: GST-fused Chlamydia pneumoniae TW183 chlamydial outer protein N (GST-CpCopN) (Chlamydia pneumoniae TW183)
Assay: pull-down; GST-fusion proteins on glutathione-agarose beads with HEp-2 cell lysate; eluted fractions blotted with anti-human aldolase A antibody; only the target purified

B1: fructose bisphosphate aldolase A (enzyme, UniProt P04075 1-364)
chain: MPYQYPALTPEQKKELSDIAHRIVAPGKGILAADESTGSIAKRLQSIGTENTEENRRFYRQLLLTADDRVNPCIGGVILFHETLYQKADDGRPFPQVIKSKGGVVGIKVDKGVVPLAGTNGETTTQGLDGLSERCAQYKKDGADFAKWRCVLKIGEHTPSALAIMENANVLARYASICQQNGIVPIVEPEILPDGDHDLKRCQYVTEKVLAAVYKALSDHHIYLEGTLLKPNMVTPGHACTQKFSHEEIAMATVTALRRTVPPAVTGITFLSGGQSEEEASINLNAINKCPLLKPWALTFSYGRALQASALKAWGGKKENLKAAQEEYVKRALANSLACQGKYTPSGQAGAAASESLFVSNHAY
- binding: binds
